In article PMC6598649:

Target: T1, TZSV NSs (co-IP construct) (Tomato zonate spot orthotospovirus) (UniProt B1NK03)
T1 sequence: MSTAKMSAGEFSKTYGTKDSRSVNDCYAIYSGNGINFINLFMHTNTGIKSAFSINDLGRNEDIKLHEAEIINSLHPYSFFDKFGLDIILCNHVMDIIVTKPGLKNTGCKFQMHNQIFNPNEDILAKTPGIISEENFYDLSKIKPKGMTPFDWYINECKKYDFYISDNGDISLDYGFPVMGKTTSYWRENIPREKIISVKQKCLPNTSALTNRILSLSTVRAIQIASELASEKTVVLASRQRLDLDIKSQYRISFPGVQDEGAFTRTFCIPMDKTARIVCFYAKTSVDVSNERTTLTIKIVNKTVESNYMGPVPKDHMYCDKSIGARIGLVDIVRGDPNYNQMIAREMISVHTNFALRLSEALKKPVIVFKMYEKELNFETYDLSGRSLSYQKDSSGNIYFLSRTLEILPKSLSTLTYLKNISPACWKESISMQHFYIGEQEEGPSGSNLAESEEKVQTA
Assay: co-IP; protein extracts of agroinfiltrated N. benthamiana leaves, 25 μL GFP-trap beads, 3 h at 4°C; 50 mM Tris-HCl pH 7.5, 150 mM NaCl, 2 mM MgCl2, 0.5 mM EDTA, 0.1% Triton, 0.5% NP-40, 10% glycerol; immunoblot with Anti-GFP and Anti-Myc

Substance: CaMYC2-Myc (Capsicum annuum (pepper))
- binding: binds

No constants are given. Whether binding was seen depends on the method and setting. In cells and extracts the contact can be indirect. A result given as binding can be weak or reduced; the word gives no strength.
